Data as given in the supplement of paper PMC8728848.
Some of the results follow.

Legend:
Assay in all cases: glycan array binding signal (z-score within array); higher = stronger binding
Conditions in all cases: glycan notation: IUPAC condensed, linker removed
[1] = molecular target: GlcNAc(b1-3)Gal(b1-4)GlcNAc(b1-3)Gal(b1-4)GlcNAc
In short: (§1)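 Negative Z-scores can be read as non-binding. The Z-score is calculated within each array and then averaged across arrays of one protein sequence at different concentrations or buffers and across linkers. Arrays, 3228 in all, were curated from the Consortium for Functional Glycomics database and kept only where the protein sequence was available.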

GlcNAc(b1-3)GalNAc = molecular target: GlcNAc(b1-3)GalNAc
In short: as §1

GlcNAc(b1-3)Man = molecular target: GlcNAc(b1-3)Man
In short: as §1

[2] = molecular target: GlcNAc(b1-3)[GlcNAc(b1-4)][GlcNAc(b1-6)]GlcNAc
In short: as §1

[3] = molecular target: GlcNAc(b1-3)[GlcNAc(b1-6)]Gal(b1-4)GlcNAc
In short: as §1

[4] = molecular target: GlcNAc(b1-3)[GlcNAc(b1-6)]GalNAc
In short: as §1

[5] = molecular target: GlcNAc(b1-4)Gal(b1-4)GlcNAc
In short: as §1

GlcNAc(b1-4)GlcNAc = molecular target: GlcNAc(b1-4)GlcNAc
In short: as §1

[6] = molecular target: GlcNAc(b1-4)GlcNAc(b1-4)GlcNAc
In short: as §1

[7] = molecular target: GlcNAc(b1-4)GlcNAc(b1-4)GlcNAc(b1-4)GlcNAc(b1-4)GlcNAc
In short: as §1

[8] = molecular target: GlcNAc(b1-4)GlcNAc(b1-4)GlcNAc(b1-4)GlcNAc(b1-4)GlcNAc(b1-4)GlcNAc
In short: as §1

[9] = molecular target: GlcNAc(b1-4)[GlcNAc(b1-6)]GalNAc
In short: as §1

[10] = molecular target: GlcNAc(b1-6)Gal(b1-4)GlcNAc
In short: as §1

GlcNAc(b1-6)GalNAc = molecular target: GlcNAc(b1-6)GalNAc
In short: as §1

GlcNAc3Prop(b1-4)GlcNAc = molecular target: GlcNAc3Prop(b1-4)GlcNAc
In short: as §1

[11] = molecular target: GlcNAc6S(b1-3)Gal(b1-4)GlcNAc
In short: as §1

Kdn(a2-3)Gal(b1-3)GalNAc = molecular target: Kdn(a2-3)Gal(b1-3)GalNAc
In short: as §1

Kdn(a2-3)Gal(b1-3)GlcNAc = molecular target: Kdn(a2-3)Gal(b1-3)GlcNAc
In short: as §1

Kdn(a2-3)Gal(b1-4)Glc = molecular target: Kdn(a2-3)Gal(b1-4)Glc
In short: as §1

Kdn(a2-3)Gal(b1-4)GlcNAc = molecular target: Kdn(a2-3)Gal(b1-4)GlcNAc
In short: as §1

[12] = molecular target: Kdn(a2-3)Gal(b1-4)[Fuc(a1-3)]GlcNAc
In short: as §1

Kdn(a2-6)Gal(b1-4)GlcNAc = molecular target: Kdn(a2-6)Gal(b1-4)GlcNAc
In short: as §1

[13] = molecular target: Man(a1-2)Man(a1-2)Man(a1-3)Man
In short: as §1

[14] = molecular target: Man(a1-2)Man(a1-2)Man(a1-6)[Man(a1-3)]Man
In short: as §1

Man(a1-2)Man(a1-3)Man = molecular target: Man(a1-2)Man(a1-3)Man
In short: as §1

[15] = molecular target: Man(a1-2)Man(a1-3)[Man(a1-2)Man(a1-6)]Man
In short: as §1

[16] = molecular target: Man(a1-2)Man(a1-3)[Man(a1-2)Man(a1-6)]Man(a1-6)[Man(a1-2)Man(a1-2)Man(a1-3)]Man
In short: as §1

[17] = molecular target: Man(a1-2)Man(a1-3)[Man(a1-2)Man(a1-6)]Man(a1-6)[Man(a1-2)Man(a1-2)Man(a1-3)]Man(b1-4)GlcNAc(b1-4)GlcNAc
In short: as §1

[18] = molecular target: Man(a1-2)Man(a1-3)[Man(a1-6)]Man(a1-6)[Man(a1-2)Man(a1-3)]Man(b1-4)GlcNAc(b1-4)GlcNAc
In short: as §1

[19] = molecular target: Man(a1-2)Man(a1-6)[Man(a1-3)]Man(a1-6)[Man(a1-2)Man(a1-2)Man(a1-3)]Man
In short: as §1

[20] = molecular target: Man(a1-2)Man(a1-6)[Man(a1-3)]Man(a1-6)[Man(a1-2)Man(a1-2)Man(a1-3)]Man(b1-4)GlcNAc(b1-4)GlcNAc
In short: as §1

Man(a1-3)[Man(a1-6)]Man = molecular target: Man(a1-3)[Man(a1-6)]Man
In short: as §1

[21] = molecular target: Man(a1-3)[Man(a1-6)]Man(a1-6)[Man(a1-2)Man(a1-3)]Man(b1-4)GlcNAc(b1-4)GlcNAc
In short: as §1

[22] = molecular target: Man(a1-3)[Man(a1-6)]Man(a1-6)[Man(a1-3)]Man
In short: as §1

[23] = molecular target: Man(a1-3)[Man(a1-6)]Man(a1-6)[Man(a1-3)]Man(b1-4)GlcNAc(b1-4)GlcNAc
In short: as §1

[24] = molecular target: Man(a1-3)[Man(a1-6)]Man(b1-4)GlcNAc(b1-4)GlcNAc
In short: as §1

Man(a1-6)Man = molecular target: Man(a1-6)Man
In short: as §1

B1: PEB4 (Campylobacter jejuni), A1VYV6 (protein)
chain: MKKFSLVAAALIAGVALNVNAATVATVNGKSISDAEVSEFFAPMLRGQDFKTLPDNQKKALIQQYIMQDLILQDAKKQNLEKDPLYTKELDRAKDAILVNVYQEKILNTIKIDAAKVKAFYDQNKDKYVKPARVQAKHILVATEKEAKDIINELKGLKGKELDAKFSELAKEKSIDPGSKNQGGELGWFDQSTMVKPFTDAAFALKNGTITTTPVKTNFGYHVILKENSQAKGQIKFDEVKQGIENGLKFEEFKKVINQKGQDLLNSAKVEYK
- glycan array binding signal (z-score) [1]: -1.1
- glycan array binding signal (z-score) (GlcNAc(b1-3)GalNAc): -1.38
- glycan array binding signal (z-score) (GlcNAc(b1-3)Man): -1.02
- glycan array binding signal (z-score) [2]: 0.152
- glycan array binding signal (z-score) [3]: -0.204
- glycan array binding signal (z-score) [4]: -1.04
- glycan array binding signal (z-score) [5]: -1.28
- glycan array binding signal (z-score) (GlcNAc(b1-4)GlcNAc): -0.48
- glycan array binding signal (z-score) [6]: -0.441
- glycan array binding signal (z-score) [7]: -1.65
- glycan array binding signal (z-score) [8]: -1.13
- glycan array binding signal (z-score) [9]: -0.279
- glycan array binding signal (z-score) [10]: 0.846
- glycan array binding signal (z-score) (GlcNAc(b1-6)GalNAc): -0.166
- glycan array binding signal (z-score) (GlcNAc3Prop(b1-4)GlcNAc): -0.606
- glycan array binding signal (z-score) [11]: -0.661
- glycan array binding signal (z-score) (Kdn(a2-3)Gal(b1-3)GalNAc): 0.086
- glycan array binding signal (z-score) (Kdn(a2-3)Gal(b1-3)GlcNAc): -0.453
- glycan array binding signal (z-score) (Kdn(a2-3)Gal(b1-4)Glc): 0.486
- glycan array binding signal (z-score) (Kdn(a2-3)Gal(b1-4)GlcNAc): -0.423
- glycan array binding signal (z-score) [12]: -1.08
- glycan array binding signal (z-score) (Kdn(a2-6)Gal(b1-4)GlcNAc): -0.028
- glycan array binding signal (z-score) [13]: 2.37
- glycan array binding signal (z-score) [14]: -0.758
- glycan array binding signal (z-score) (Man(a1-2)Man(a1-3)Man): 1.6
- glycan array binding signal (z-score) [15]: -0.015
- glycan array binding signal (z-score) [16]: -0.604
- glycan array binding signal (z-score) [17]: -0.404
- glycan array binding signal (z-score) [18]: 0.333
- glycan array binding signal (z-score) [19]: 0.888
- glycan array binding signal (z-score) [20]: 0.969
- glycan array binding signal (z-score) (Man(a1-3)[Man(a1-6)]Man): 0.078
- glycan array binding signal (z-score) [21]: 0.307
- glycan array binding signal (z-score) [22]: 0.141
- glycan array binding signal (z-score) [23]: -0.553
- glycan array binding signal (z-score) [24]: -0.217
- glycan array binding signal (z-score) (Man(a1-6)Man): 1.64
